# In PMC8242001:
# Amino acid sequences for entries named in this document (tags omitted). A change or cut given only in a name is not applied to a line headed by its entry.
# UniProt P12962: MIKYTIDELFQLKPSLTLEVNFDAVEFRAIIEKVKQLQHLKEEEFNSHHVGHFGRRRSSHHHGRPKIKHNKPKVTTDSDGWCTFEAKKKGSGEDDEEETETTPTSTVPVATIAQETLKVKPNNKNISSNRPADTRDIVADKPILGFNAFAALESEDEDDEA
# UniProt P07260: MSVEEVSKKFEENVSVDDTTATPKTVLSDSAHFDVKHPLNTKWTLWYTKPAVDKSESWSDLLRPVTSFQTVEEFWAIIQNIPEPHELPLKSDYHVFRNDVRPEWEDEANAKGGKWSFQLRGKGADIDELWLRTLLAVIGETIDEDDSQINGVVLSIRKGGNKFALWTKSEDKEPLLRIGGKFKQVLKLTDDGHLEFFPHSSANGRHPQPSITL
# Results are given in words; binding and its absence hold for the method and conditions named. Binding seen in cells or lysates may run through a third protein. For part of these data: Binding calls can cover weak binding; strength is not graded here.
# Key:
# [1] = target: Caf20^∆6-FLAG (S. cerevisiae) (UniProt P12962); assay: co-IP; Caf20-FLAG held on anti-Flag M2 magnetic beads from yeast total cell extract; IP lysis buffer 30 mM HEPES-KOH pH 7.5, 10% glycerol, 1 mM TCEP with 100 mM KCl (low salt); 1-2 h at 4 °C; eluted with 3X Flag peptide; western blot for native eIF4E
# [2] = target: Caf20-FLAG deleted for region B with the m^2 mutations (Y4A, L9A) (S. cerevisiae) (UniProt P12962); assay: as above
# [3] = target: Caf20^∆8-FLAG (S. cerevisiae) (UniProt P12962); assay: as above
# [4] = target: Caf20^∆2-FLAG (S. cerevisiae) (UniProt P12962); assay: as above
# [5] = target: Caf20^∆B-FLAG (S. cerevisiae) (UniProt P12962); assay: as above
# [6] = target: Caf20-FLAG deleted for region C with the m^2 mutations (Y4A, L9A) (S. cerevisiae) (UniProt P12962); assay: as above
# [7] = target: Caf20^∆4-FLAG (S. cerevisiae) (UniProt P12962); assay: as above
# [8] = target: Caf20^∆C-FLAG (S. cerevisiae) (UniProt P12962); assay: as above
# [9] = target: Caf20^∆3-FLAG (S. cerevisiae) (UniProt P12962); assay: as above
# [10] = target: Caf20^∆7-FLAG (S. cerevisiae) (UniProt P12962); assay: as above
# [11] = target: Caf20^∆1-FLAG (S. cerevisiae) (UniProt P12962); assay: as above
# [12] = target: Caf20^∆5-FLAG (S. cerevisiae) (UniProt P12962); assay: as above
# [13] = target: Caf20^∆6-FLAG (S. cerevisiae) (UniProt P12962); assay: co-IP; as the low-salt Flag IP, but with high salt buffer (1 M KCl); Caf20-FLAG held on anti-Flag M2 magnetic beads from yeast total cell extract; eluted with 3X Flag peptide; western blot for native eIF4E
# [14] = target: Caf20-FLAG deleted for region B with the m^2 mutations (Y4A, L9A) (S. cerevisiae) (UniProt P12962); assay: as above
# [15] = target: Caf20^∆8-FLAG (S. cerevisiae) (UniProt P12962); assay: as above
# [16] = target: Caf20^∆2-FLAG (S. cerevisiae) (UniProt P12962); assay: as above
# [17] = target: Caf20^∆B-FLAG (S. cerevisiae) (UniProt P12962); assay: as above
# [18] = target: Caf20-FLAG deleted for region C with the m^2 mutations (Y4A, L9A) (S. cerevisiae) (UniProt P12962); assay: as above
# [19] = target: Caf20^∆4-FLAG (S. cerevisiae) (UniProt P12962); assay: as above
# [20] = target: Caf20^∆C-FLAG (S. cerevisiae) (UniProt P12962); assay: as above
# [21] = target: Caf20^∆3-FLAG (S. cerevisiae) (UniProt P12962); assay: as above
# [22] = target: Caf20^∆7-FLAG (S. cerevisiae) (UniProt P12962); assay: as above
# [23] = target: Caf20^∆1-FLAG (S. cerevisiae) (UniProt P12962); assay: as above
# [24] = target: Caf20^∆5-FLAG (S. cerevisiae) (UniProt P12962); assay: as above
substance,measurement,setting,value
"eIF4E (native, yeast) (from UniProt P07260 1-213)",binding,[1],binds
same,binding,[2],no binding
same,binding,[3],binds
same,binding,[4],binds
same,binding,[5],binds
same,binding,[6],no binding
same,binding,[7],binds
same,binding,[8],binds
same,binding,[9],binds
same,binding,[10],binds
same,binding,[11],no binding
same,binding,[12],binds
same,binding,[13],binds
same,binding,[14],no binding
same,binding,[15],binds
same,binding,[16],binds
same,binding,[17],binds
same,binding,[18],no binding
same,binding,[19],binds
same,binding,[20],binds
same,binding,[21],binds
same,binding,[22],binds
same,binding,[23],no binding
same,binding,[24],binds
